Experimental data: PubChem BioAssay AID602196 (INSERM, 2012)
The whole screen tested about 23,000 reagents; below is a random part of them. 455 of all reagents (2%) count as active. 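Active includes both protection and sensitisation; some change values fall well beyond the stated -50 to +50 range.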 Unmarked entries are inactive. Further read-outs or replicates are left out here. Not stated in the record: the amount of reagent.

Test: 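Knock-downs that protect lung cancer cells from cisplatin or sensitise them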
Cells: human A549 lung cancer cells
Reagents: siRNA pair against human genes
Time to read-out: 48 h transfection before cisplatin; time from cisplatin to read-out not stated
Treatment: cisplatin at a dose killing half of control-siRNA cells; exact dose and duration not given
Measurement: 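Cisplatin cell death as a shift from the 50% death seen with control siRNA; siRNAs toxic or growth-blocking alone scored 0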
Direction: two-siRNA summed score (-2 to +2): higher = both siRNAs protect from cisplatin killing; -2 means both sensitise; mean protection from cisplatin (shift in death): higher = protection from cisplatin killing
Active means: 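siRNAs harmful alone (LDH or WST-1) get 0; others get +1 for less and -1 for more cisplatin killing; genes are active when the two siRNAs give the same sign, summing to ±2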
Meaning of the calls: active = both siRNAs shift cisplatin killing the same way; inactive = no consistent shift, or siRNA harmful alone

no.	gene	two-siRNA summed score (-2 to +2)	mean protection from cisplatin (shift in death) (%)
1	SPNS1 (GeneID 83985)	0	-1
2	GPHRB (GeneID 51463)	2 (active)	16.2
3	GALE (GeneID 2582)	0	-2.6
4	RGS2 (GeneID 5997)	-1	-7.6
5	ERO1A (GeneID 30001)	-1	-15.5
6	CAV3 (GeneID 859)	-1	-13.6
7	ANGEL2 (GeneID 90806)	0	10.8
8	CCDC88B (GeneID 283234)	0	17.6
9	OR7C2 (GeneID 26658)	-1	-2.5
10	TCTN1 (GeneID 79600)	0	8.2
11	FOXD2 (GeneID 2306)	1	20.6
12	JAGN1 (GeneID 84522)	0	12.8
13	NFASC (GeneID 23114)	0	-0.9
14	ZSCAN1 (GeneID 284312)	1	8.9
15	COL4A2 (GeneID 1284)	1	17.8
16	LOC347273	1	7.1
17	IFFO1 (GeneID 25900)	0	-1.8
18	ATXN7L3 (GeneID 56970)	-1	-4.1
19	LHCGR (GeneID 3973)	0	1.6
20	KCNE1 (GeneID 3753)	0	-1.8
21	FAM81B (GeneID 153643)	0	-6.4
22	LOC200383	0	19.6
23	TCEAL6 (GeneID 158931)	0	7
24	FIBCD1 (GeneID 84929)	0	13.1
25	MRO (GeneID 83876)	0	12.9
26	CHRM4 (GeneID 1132)	1	3.4
27	TTC4 (GeneID 7268)	-2 (active)	-17.7
28	GMPPB (GeneID 29925)	0	0.4
29	GPR180 (GeneID 160897)	-1	-15.2
30	BMP10 (GeneID 27302)	-1	-0.6
31	QRSL1 (GeneID 55278)	0	2.1
32	FNDC3A (GeneID 22862)	1	10
33	C2CD2L (GeneID 9854)	0	12.3
34	GAGE12I (GeneID 26748)	0	10.8
35	OR5K1 (GeneID 26339)	0	6
36	RHOD (GeneID 29984)	0	-10.9
37	CCZ1 (GeneID 51622)	0	15.1
38	CPE (GeneID 1363)	1	-1.7
39	LOC388922	0	7.9
40	LOC387871	1	20.7
41	SPATA41 (GeneID 388182)	0	-2.9
42	LOC90379	0	11
43	OR2M4 (GeneID 26245)	0	2.2
44	LINC02243 (GeneID 340581)	0	0
45	LOC441345	0	3.7
46	SKP1 (GeneID 6500)	-1	-0.9
47	PSPC1 (GeneID 55269)	-1	-8.4
48	ERVFC1-1 (GeneID 346547)	0	8.4
49	KCTD3 (GeneID 51133)	0	-2.6
50	LINC02433 (GeneID 340017)	0	5.6
51	GOT1 (GeneID 2805)	-1	-10.8
52	LOC339025	1	9.7
53	TRMT10C (GeneID 54931)	0	2.8
54	NME4 (GeneID 4833)	0	-1.7
55	FKBP3 (GeneID 2287)	0	5.1
56	PPP2R2D (GeneID 55844)	-1	-13.1
57	PDLIM5 (GeneID 10611)	1	5.1

Reagents listed so far called active, once more:
gene	two-siRNA summed score (-2 to +2)	mean protection from cisplatin (shift in death) (%)
GPHRB (GeneID 51463)	2 (active)	16.2
TTC4 (GeneID 7268)	-2 (active)	-17.7
